{"source": "PubChem BioAssay AID1259308 (NCATS, 2017)", "screen": "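Candidate targets for better recombinant protein yield in mammalian cells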 (primary screen)", "cells": "human HEK293 embryonic kidney cells stably expressing firefly luciferase (HEK-CMV-Luc2-Hygro)", "reagents": "single siRNA against human genes, 0.8 pmol siRNA per well", "time to read-out": "72 h", "detection": "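Reporter luminescence and viable-cell signal on separate replicate plates, given as percent of non-targeting control and median/MAD z-scores, plus per-cell luciferase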", "reading the numbers": "total luciferase, z-score: higher = more reporter protein produced", "call rule": "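Active when the median/MAD z-score for overall luciferase is greater than 3; a gene was taken forward for validation with new siRNAs if at least two of its three siRNAs passed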", "meaning of the calls": "active = raised luciferase; inactive = no rise", "note": "The whole screen tested about 59,000 reagents; this is an unselected part. Over the whole deposit, about 1,510 (2.6%) got an active call. 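Calls use total luciferase alone and ignore viability, so some active siRNAs may act by altering cell number.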 Reagents against one gene are numbered here. Further read-outs or replicates are left out here."}
{"gene": "MRPL9", "siRNA no.": 1, "total luciferase, z-score": -0.465, "Outcome": "inactive"}
{"gene": "MRPL9", "siRNA no.": 2, "total luciferase, z-score": -0.103, "Outcome": "inactive"}
{"gene": "MRPL9", "siRNA no.": 3, "total luciferase, z-score": 0.369, "Outcome": "inactive"}
{"gene": "APOL2", "siRNA no.": 1, "total luciferase, z-score": 0.723, "Outcome": "inactive"}
{"gene": "APOL2", "siRNA no.": 2, "total luciferase, z-score": 1.97, "Outcome": "inactive"}
{"gene": "APOL2", "siRNA no.": 3, "total luciferase, z-score": -0.0321, "Outcome": "inactive"}
{"gene": "RAD23B", "siRNA no.": 1, "total luciferase, z-score": 0.963, "Outcome": "inactive"}
{"gene": "RAD23B", "siRNA no.": 2, "total luciferase, z-score": 1.03, "Outcome": "inactive"}
{"gene": "RAD23B", "siRNA no.": 3, "total luciferase, z-score": 1.07, "Outcome": "inactive"}
{"gene": "SKP1", "siRNA no.": 1, "total luciferase, z-score": 0.115, "Outcome": "inactive"}
{"gene": "SKP1", "siRNA no.": 2, "total luciferase, z-score": -1.11, "Outcome": "inactive"}
{"gene": "SKP1", "siRNA no.": 3, "total luciferase, z-score": 0.105, "Outcome": "inactive"}
{"gene": "MTFR1L", "siRNA no.": 1, "total luciferase, z-score": -1.28, "Outcome": "inactive"}
{"gene": "MTFR1L", "siRNA no.": 2, "total luciferase, z-score": 0.206, "Outcome": "inactive"}
{"gene": "MTFR1L", "siRNA no.": 3, "total luciferase, z-score": -0.959, "Outcome": "inactive"}
{"gene": "SIX1", "siRNA no.": 1, "total luciferase, z-score": -0.323, "Outcome": "inactive"}
{"gene": "SIX1", "siRNA no.": 2, "total luciferase, z-score": 2.21, "Outcome": "inactive"}
{"gene": "SIX1", "siRNA no.": 3, "total luciferase, z-score": -0.546, "Outcome": "inactive"}

Laid out differently: results already given.
MRPL9 #1
- total luciferase, z-score: -0.465
- Outcome: inactive

MRPL9 #2
- total luciferase, z-score: -0.103
- Outcome: inactive

MRPL9 #3
- total luciferase, z-score: 0.369
- Outcome: inactive

APOL2 #1
- total luciferase, z-score: 0.723
- Outcome: inactive

Continued:
{"gene": "UNC93B1", "siRNA no.": 1, "total luciferase, z-score": 0.478, "Outcome": "inactive"}
{"gene": "UNC93B1", "siRNA no.": 2, "total luciferase, z-score": 3.22, "Outcome": "active"}
{"gene": "UNC93B1", "siRNA no.": 3, "total luciferase, z-score": 1.02, "Outcome": "inactive"}
{"gene": "CRYBB3", "siRNA no.": 1, "total luciferase, z-score": 0.392, "Outcome": "inactive"}
{"gene": "CRYBB3", "siRNA no.": 2, "total luciferase, z-score": -0.728, "Outcome": "inactive"}
{"gene": "CRYBB3", "siRNA no.": 3, "total luciferase, z-score": -0.241, "Outcome": "inactive"}
{"gene": "TBC1D2", "siRNA no.": 1, "total luciferase, z-score": 0.405, "Outcome": "inactive"}
{"gene": "TBC1D2", "siRNA no.": 2, "total luciferase, z-score": -0.316, "Outcome": "inactive"}
{"gene": "TBC1D2", "siRNA no.": 3, "total luciferase, z-score": 0.156, "Outcome": "inactive"}
{"gene": "SUPT7L", "siRNA no.": 1, "total luciferase, z-score": 0.988, "Outcome": "inactive"}
{"gene": "SUPT7L", "siRNA no.": 2, "total luciferase, z-score": -1.49, "Outcome": "inactive"}
{"gene": "SUPT7L", "siRNA no.": 3, "total luciferase, z-score": 2.65, "Outcome": "inactive"}
{"gene": "CRISP3", "siRNA no.": 1, "total luciferase, z-score": -0.742, "Outcome": "inactive"}
{"gene": "CRISP3", "siRNA no.": 2, "total luciferase, z-score": -1.06, "Outcome": "inactive"}
{"gene": "CRISP3", "siRNA no.": 3, "total luciferase, z-score": -0.12, "Outcome": "inactive"}
{"gene": "BCAT1", "siRNA no.": 1, "total luciferase, z-score": 0.087, "Outcome": "inactive"}
{"gene": "BCAT1", "siRNA no.": 2, "total luciferase, z-score": -0.736, "Outcome": "inactive"}
{"gene": "BCAT1", "siRNA no.": 3, "total luciferase, z-score": -0.469, "Outcome": "inactive"}
{"gene": "LIPK", "siRNA no.": 1, "total luciferase, z-score": 0.413, "Outcome": "inactive"}
{"gene": "LIPK", "siRNA no.": 2, "total luciferase, z-score": 0.25, "Outcome": "inactive"}
{"gene": "LIPK", "siRNA no.": 3, "total luciferase, z-score": -0.634, "Outcome": "inactive"}
{"gene": "LPXN", "siRNA no.": 1, "total luciferase, z-score": -0.418, "Outcome": "inactive"}
{"gene": "LPXN", "siRNA no.": 2, "total luciferase, z-score": 1.2, "Outcome": "inactive"}
{"gene": "LPXN", "siRNA no.": 3, "total luciferase, z-score": -1.06, "Outcome": "inactive"}
